PubChem BioAssay AID1508597 | Cure First – 2020

Purpose: 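Survival screen with siRNA in ovarian cancer cells derived from patients, with or without rucaparib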 (primary screen)
Cells: human ovarian carcinoma lines grown from tumours: OCI-P5x (papillary serous) and OCI-C5x (clear cell)
Reagents: siRNA pool against human genes, 1.25 pmol siRNA per well
Time to read-out: 72 h or 96 h, depending on the cell culture
Conditions: rucaparib 20 µM (about IC30) or vehicle, present until read-out
Detection: 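Luminescent ATP-based viability assay read 72 or 96 h after transfection, depending on culture, given as normalised percent viability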
Reading the numbers: viability, normalised: higher = more viable cells remaining
Call rule: 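Active when normalised viability falls below 80 percent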
Meaning of the calls: active = viability under 80%; inactive = viability 80% or more
The deposit covers about 2,100 reagents; shown is a random part of them. 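Calls flag viability under 80% in either arm, not effects specific to rucaparib; the reference for percent is not stated.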 No sequences are given here. The record does not give: the 100% reference.

| Gene | rucaparib or vehicle | cell line | technical replicate | viability, normalised (%) | activity call |
| --- | --- | --- | --- | --- | --- |
| SFPQ (GeneID 6421) | Rucaparib | OCI-C5x (clear cell) | 1 | 46.4 | active |
| SFPQ (GeneID 6421) | Rucaparib | OCI-C5x (clear cell) | 2 | 31.7 | active |
| SFPQ (GeneID 6421) | Rucaparib | OCI-C5x (clear cell) | 3 | 50.6 | active |
| SFPQ (GeneID 6421) | Rucaparib | OCI-P5x (serous) | 1 | 68.3 | active |
| SFPQ (GeneID 6421) | Rucaparib | OCI-P5x (serous) | 2 | 87.1 | inactive |
| SFPQ (GeneID 6421) | Rucaparib | OCI-P5x (serous) | 3 | 72.5 | active |
| SFPQ (GeneID 6421) | Vehicle | OCI-C5x (clear cell) | 1 | 30.2 | active |
| SFPQ (GeneID 6421) | Vehicle | OCI-C5x (clear cell) | 2 | 36.1 | active |
| SFPQ (GeneID 6421) | Vehicle | OCI-C5x (clear cell) | 3 | 34.5 | active |
| SFPQ (GeneID 6421) | Vehicle | OCI-P5x (serous) | 1 | 46.4 | active |
| SFPQ (GeneID 6421) | Vehicle | OCI-P5x (serous) | 2 | 42.4 | active |
| SFPQ (GeneID 6421) | Vehicle | OCI-P5x (serous) | 3 | 54.7 | active |
| NCOR1 (GeneID 9611) | Rucaparib | OCI-C5x (clear cell) | 1 | 44.3 | active |
| NCOR1 (GeneID 9611) | Rucaparib | OCI-C5x (clear cell) | 2 | 43.6 | active |
| NCOR1 (GeneID 9611) | Rucaparib | OCI-C5x (clear cell) | 3 | 38.1 | active |
| NCOR1 (GeneID 9611) | Rucaparib | OCI-P5x (serous) | 1 | 22.6 | active |
| NCOR1 (GeneID 9611) | Rucaparib | OCI-P5x (serous) | 2 | 34.3 | active |
| NCOR1 (GeneID 9611) | Rucaparib | OCI-P5x (serous) | 3 | 37.3 | active |
| NCOR1 (GeneID 9611) | Vehicle | OCI-C5x (clear cell) | 1 | 30.6 | active |
| NCOR1 (GeneID 9611) | Vehicle | OCI-C5x (clear cell) | 2 | 36.9 | active |
| NCOR1 (GeneID 9611) | Vehicle | OCI-C5x (clear cell) | 3 | 38.3 | active |
| NCOR1 (GeneID 9611) | Vehicle | OCI-P5x (serous) | 1 | 41.4 | active |
| NCOR1 (GeneID 9611) | Vehicle | OCI-P5x (serous) | 2 | 39 | active |
| NCOR1 (GeneID 9611) | Vehicle | OCI-P5x (serous) | 3 | 52.4 | active |
| ARID2 (GeneID 196528) | Rucaparib | OCI-C5x (clear cell) | 1 | 48 | active |
| ARID2 (GeneID 196528) | Rucaparib | OCI-C5x (clear cell) | 2 | 56.3 | active |
| ARID2 (GeneID 196528) | Rucaparib | OCI-C5x (clear cell) | 3 | 53.9 | active |
| ARID2 (GeneID 196528) | Rucaparib | OCI-P5x (serous) | 1 | 61.2 | active |
| ARID2 (GeneID 196528) | Rucaparib | OCI-P5x (serous) | 2 | 58.6 | active |
| ARID2 (GeneID 196528) | Rucaparib | OCI-P5x (serous) | 3 | 69.9 | active |
| ARID2 (GeneID 196528) | Vehicle | OCI-C5x (clear cell) | 1 | 43.7 | active |
| ARID2 (GeneID 196528) | Vehicle | OCI-C5x (clear cell) | 2 | 41.8 | active |
| ARID2 (GeneID 196528) | Vehicle | OCI-C5x (clear cell) | 3 | 44.5 | active |
| ARID2 (GeneID 196528) | Vehicle | OCI-P5x (serous) | 1 | 60.1 | active |
| ARID2 (GeneID 196528) | Vehicle | OCI-P5x (serous) | 2 | 63 | active |
| ARID2 (GeneID 196528) | Vehicle | OCI-P5x (serous) | 3 | 48.8 | active |
| ASH2L (GeneID 9070) | Rucaparib | OCI-C5x (clear cell) | 1 | 52.3 | active |
| ASH2L (GeneID 9070) | Rucaparib | OCI-C5x (clear cell) | 2 | 56.2 | active |
| ASH2L (GeneID 9070) | Rucaparib | OCI-C5x (clear cell) | 3 | 61.4 | active |
| ASH2L (GeneID 9070) | Rucaparib | OCI-P5x (serous) | 1 | 53.6 | active |
| ASH2L (GeneID 9070) | Rucaparib | OCI-P5x (serous) | 2 | 73.5 | active |
| ASH2L (GeneID 9070) | Rucaparib | OCI-P5x (serous) | 3 | 82.2 | inactive |
| ASH2L (GeneID 9070) | Vehicle | OCI-C5x (clear cell) | 1 | 58.7 | active |
| ASH2L (GeneID 9070) | Vehicle | OCI-C5x (clear cell) | 2 | 54.1 | active |
| ASH2L (GeneID 9070) | Vehicle | OCI-C5x (clear cell) | 3 | 61.4 | active |
| ASH2L (GeneID 9070) | Vehicle | OCI-P5x (serous) | 1 | 80 | inactive |
| ASH2L (GeneID 9070) | Vehicle | OCI-P5x (serous) | 2 | 76.6 | active |
| ASH2L (GeneID 9070) | Vehicle | OCI-P5x (serous) | 3 | 66.9 | active |
| AIPL1 (GeneID 23746) | Rucaparib | OCI-C5x (clear cell) | 1 | 50.6 | active |
| AIPL1 (GeneID 23746) | Rucaparib | OCI-C5x (clear cell) | 2 | 47.2 | active |
| AIPL1 (GeneID 23746) | Rucaparib | OCI-C5x (clear cell) | 3 | 43 | active |
| AIPL1 (GeneID 23746) | Rucaparib | OCI-P5x (serous) | 1 | 78.3 | active |
| AIPL1 (GeneID 23746) | Rucaparib | OCI-P5x (serous) | 2 | 77.9 | active |
| AIPL1 (GeneID 23746) | Rucaparib | OCI-P5x (serous) | 3 | 76.9 | active |
| AIPL1 (GeneID 23746) | Vehicle | OCI-C5x (clear cell) | 1 | 44.6 | active |
| AIPL1 (GeneID 23746) | Vehicle | OCI-C5x (clear cell) | 2 | 45 | active |
| AIPL1 (GeneID 23746) | Vehicle | OCI-C5x (clear cell) | 3 | 56.2 | active |
| AIPL1 (GeneID 23746) | Vehicle | OCI-P5x (serous) | 1 | 64.4 | active |
| AIPL1 (GeneID 23746) | Vehicle | OCI-P5x (serous) | 2 | 62.9 | active |
| AIPL1 (GeneID 23746) | Vehicle | OCI-P5x (serous) | 3 | 67.2 | active |
